PubChem BioAssay AID1259308, NCATS, 2017
Shown is one part, drawn at random, of about 59,000 reagents tested. In the full data, about 1,510 (2.6%) were called active. 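Calls use total luciferase alone and ignore viability, so some active siRNAs may act by altering cell number.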

- Aim: 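Genes whose loss raises luciferase production in HEK293 cells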 (primary screen)
- Cell system: human HEK293 embryonic kidney cells stably expressing firefly luciferase (HEK-CMV-Luc2-Hygro)
- Reagents: single siRNA against human genes, 0.8 pmol siRNA per well
- Timing: 72 h
- Detection: 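Reporter luminescence and viable-cell signal on separate replicate plates, given as percent of non-targeting control and median/MAD z-scores, plus per-cell luciferase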
- Scale: total luciferase, z-score and total luciferase, % of control: higher = more reporter protein produced; luciferase per cell, z-score: higher = more reporter output per viable cell; viable cells, % of control: higher = more viable cells
- Active means: 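Active when the median/MAD z-score for overall luciferase is greater than 3; a gene was taken forward for validation with new siRNAs if at least two of its three siRNAs passed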
- Calls: active = raised luciferase; inactive = no rise

| gene symbol | PubChem SID | total luciferase, z-score | total luciferase, % of control | luciferase per cell, z-score | viable cells, % of control | call |
| --- | --- | --- | --- | --- | --- | --- |
| GFER | SID160770457 | 0.0846 | 83.6 | -0.108 | 96.1 | inactive |
| GFER | SID160770468 | -2.26 | 37 | -1.58 | 62.6 | inactive |
| GFER | SID160770478 | 1.65 | 115 | 1.15 | 94.8 | inactive |
| TMEM101 | SID160752190 | -0.714 | 67.7 | -0.342 | 82.8 | inactive |
| TMEM101 | SID160752191 | 0.801 | 97.8 | 1.01 | 83.9 | inactive |
| TMEM101 | SID160752193 | -1.11 | 59.8 | -1.49 | 99 | inactive |
| KRT78 | SID160760595 | -0.699 | 68 | -1.1 | 101 | inactive |
| KRT78 | SID160760596 | 1.14 | 104 | 1.51 | 78.4 | inactive |
| KRT78 | SID160760597 | 1.03 | 102 | 1.17 | 84 | inactive |
| NCKIPSD | SID160740919 | -0.248 | 77 | -0.115 | 88.6 | inactive |
| NCKIPSD | SID160740921 | 1.09 | 104 | 1.12 | 86.2 | inactive |
| NCKIPSD | SID160740922 | -0.797 | 66 | -0.28 | 79.4 | inactive |
| OR9Q2 | SID160761416 | 2.03 | 122 | 2.91 | 63.6 | inactive |
| OR9Q2 | SID160761417 | -1.5 | 52 | 0.227 | 54.7 | inactive |
| OR9Q2 | SID160761418 | -0.379 | 74.3 | -0.228 | 88.2 | inactive |
| GPR32 | SID160773540 | 0.328 | 88.4 | -0.0968 | 101 | inactive |
| GPR32 | SID160773550 | -0.489 | 72.2 | -0.473 | 91.3 | inactive |
| GPR32 | SID160773560 | 1.17 | 105 | 0.492 | 103 | inactive |
| ZNF274 | SID160729210 | 0.039 | 82.7 | -0.326 | 101 | inactive |
| ZNF274 | SID160729211 | -0.92 | 63.6 | -1.08 | 94.4 | inactive |
| ZNF274 | SID160730473 | -0.932 | 63.4 | 0.287 | 65.6 | inactive |
| PEDS1 | SID160765600 | -0.813 | 65.7 | 0.0381 | 72.7 | inactive |
| PEDS1 | SID160765601 | 1.24 | 107 | 2.16 | 67.5 | inactive |
| PEDS1 | SID160765602 | 1.64 | 115 | 2.8 | 61.3 | inactive |
| SDHA | SID160716524 | -0.534 | 71.3 | -1.11 | 107 | inactive |
| SDHA | SID160716525 | -0.288 | 76.2 | -0.779 | 104 | inactive |
| SDHA | SID160731703 | 0.0424 | 82.7 | -0.467 | 105 | inactive |
| TRIML2 | SID160761199 | 4.79 | 177 | 3.23 | 84.6 | active |
| TRIML2 | SID160761200 | -0.318 | 75.6 | -0.269 | 90.6 | inactive |
| TRIML2 | SID160761202 | -1.23 | 57.5 | -0.552 | 74.3 | inactive |
| BORCS7 | SID160755697 | 0.0199 | 82.3 | 0.142 | 88.6 | inactive |
| BORCS7 | SID160755698 | -0.00221 | 81.8 | -0.148 | 95.1 | inactive |
| BORCS7 | SID160755699 | -1.11 | 59.8 | -1.13 | 90 | inactive |
| NDUFA10 | SID160758510 | -0.101 | 79.9 | -0.349 | 97.8 | inactive |
| NDUFA10 | SID160759562 | -0.456 | 72.8 | -0.433 | 91.2 | inactive |
| NDUFA10 | SID160760603 | -1.23 | 57.4 | -1.24 | 89 | inactive |
| SERPINA10 | SID160740203 | -1.25 | 57 | -1.05 | 83.9 | inactive |
| SERPINA10 | SID160740204 | 0.00174 | 81.9 | -0.565 | 106 | inactive |
| SERPINA10 | SID160740205 | -0.119 | 79.5 | 1.29 | 63.2 | inactive |
| SVOP | SID160743762 | -0.0139 | 81.6 | -0.146 | 94.8 | inactive |
| SVOP | SID160743763 | -0.906 | 63.9 | 0.186 | 68 | inactive |
| SVOP | SID160743764 | -0.525 | 71.5 | -0.447 | 89.8 | inactive |
| DRD4 | SID160723737 | -0.276 | 76.4 | 0.301 | 78.9 | inactive |
| DRD4 | SID160730722 | -0.977 | 62.5 | -1.08 | 92.8 | inactive |
| DRD4 | SID160756346 | 4.38 | 169 | 3.32 | 78.9 | active |
| CORO2A | SID160718817 | -0.381 | 74.3 | -0.359 | 91.3 | inactive |
| CORO2A | SID160718818 | 0.258 | 87 | 0.151 | 93.5 | inactive |
| CORO2A | SID160718819 | -1.5 | 52.2 | -1.91 | 96.4 | inactive |
| RAB41 | SID160764990 | 0.311 | 88.1 | 0.801 | 79.7 | inactive |
| RAB41 | SID160764991 | 0.249 | 86.8 | 0.00607 | 96.9 | inactive |
| RAB41 | SID160764992 | -0.632 | 69.3 | -0.673 | 92.5 | inactive |
| INPP5K | SID160731397 | 1.62 | 114 | 1.13 | 94.7 | inactive |
| INPP5K | SID160741330 | -1.45 | 53 | -0.257 | 63.4 | inactive |
| INPP5K | SID160741331 | -0.257 | 76.8 | 1.05 | 65.1 | inactive |
| METTL2A | SID160731101 | -0.975 | 62.5 | -1.39 | 101 | inactive |
| METTL2A | SID160764162 | -0.467 | 72.6 | -0.169 | 84.8 | inactive |
| METTL2A | SID160764163 | -0.554 | 70.9 | 0.403 | 71.2 | inactive |

Targets above whose gene name starts with N or n:
| gene symbol | PubChem SID | total luciferase, z-score | total luciferase, % of control | luciferase per cell, z-score | viable cells, % of control | call |
| --- | --- | --- | --- | --- | --- | --- |
| NCKIPSD | SID160740919 | -0.248 | 77 | -0.115 | 88.6 | inactive |
| NCKIPSD | SID160740921 | 1.09 | 104 | 1.12 | 86.2 | inactive |
| NCKIPSD | SID160740922 | -0.797 | 66 | -0.28 | 79.4 | inactive |
| NDUFA10 | SID160758510 | -0.101 | 79.9 | -0.349 | 97.8 | inactive |
| NDUFA10 | SID160759562 | -0.456 | 72.8 | -0.433 | 91.2 | inactive |
| NDUFA10 | SID160760603 | -1.23 | 57.4 | -1.24 | 89 | inactive |
